Experimental data published in PubChem BioAssay AID588590 (National Center for Advancing Translational Sciences (NCATS), 2011).
Among all 390,000 compounds or so, about 4,000 (1%) were called active. Inconclusive results, whose numbers are uncertain, are shown with a selection of clear calls. Calls come from the whole dose curve; as a rule, active = well fitted inhibition curve with a large enough effect; inconclusive = small, poorly fitted or top-dose-only effect, or another doubt; inactive = no such curve, though single readings can be large or run the other way. Potencies beside an inconclusive call are fits to weak or partial responses and may not hold up.

The chains behind the UniProt entries cited, without tags or fusion partners. Where a name states a change or a piece, a line headed by the entry shows the natural chain unless it says otherwise.
UniProt Q9UNA4: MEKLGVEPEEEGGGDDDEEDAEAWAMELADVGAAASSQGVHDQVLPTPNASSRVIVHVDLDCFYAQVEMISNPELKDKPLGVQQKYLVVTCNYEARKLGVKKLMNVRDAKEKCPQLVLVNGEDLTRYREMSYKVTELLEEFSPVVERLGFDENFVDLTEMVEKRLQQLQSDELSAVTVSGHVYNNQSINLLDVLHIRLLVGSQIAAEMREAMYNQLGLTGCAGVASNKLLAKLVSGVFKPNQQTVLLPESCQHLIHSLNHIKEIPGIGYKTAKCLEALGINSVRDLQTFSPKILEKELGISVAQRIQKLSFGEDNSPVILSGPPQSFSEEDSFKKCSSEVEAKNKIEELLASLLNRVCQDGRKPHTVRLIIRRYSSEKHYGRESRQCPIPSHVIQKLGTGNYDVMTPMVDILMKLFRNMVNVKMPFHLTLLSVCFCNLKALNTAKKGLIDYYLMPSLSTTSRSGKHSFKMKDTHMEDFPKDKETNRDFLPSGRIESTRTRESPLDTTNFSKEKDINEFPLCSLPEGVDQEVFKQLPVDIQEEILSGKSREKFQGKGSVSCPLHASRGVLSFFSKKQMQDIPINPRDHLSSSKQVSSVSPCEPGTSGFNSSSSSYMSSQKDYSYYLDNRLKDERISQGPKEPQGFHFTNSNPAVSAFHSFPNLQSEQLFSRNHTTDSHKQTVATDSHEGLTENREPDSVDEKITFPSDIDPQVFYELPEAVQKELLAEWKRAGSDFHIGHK

Each compound was assayed against DNA polymerase iota (Homo sapiens) (UniProt Q9UNA4) (assay: qHTS for Inhibitors of Polymerase Iota). Conditions: Pol iota fluorescent replication assay, 10 min; series mostly up to 115 µM; activity, negative = inhibition: at the top concentration.
In short: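 Pol iota at 10 nM preincubated 15 min with compounds at room temperature; reaction started with fluorescent substrate, 50 nM final. Fluorescence read kinetically at 0 and 10 min; buffer-only wells as negative control.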
Potency is the fitted concentration of half-maximal effect.

SMILES | Potency | activity, negative = inhibition
Cc1ccc(S(=O)(=O)N2[C@@H](c3ccc(C(C)(C)C)cc3)C(C(=O)O)=CC[C@H]2c2cccc(Cl)c2)cc1 | inconclusive: 44.7 µM [inhibitor, partial curve, poor fit] | 
Cn1cnc([N+](=O)[O-])c1Oc1ccccc1 | inconclusive: 112 µM [inhibitor, partial curve, poor fit] | 
CCCCN(C(=O)c1ccc(-c2ccc(Cl)cc2)o1)c1c(N)n(CCCC)c(=O)[nH]c1=O | inconclusive: 31.6 µM [inhibitor, partial curve, poor fit] | 
Cc1cc(C)cc(NS(=O)(=O)c2ccc3c(c2)CCCN3C(=O)C2CCC2)c1 |  | inactive: -6.31%
COC(=O)c1c(NC(=O)Cc2cccs2)sc2c1CCC(C)C2 (stereo not given) | inconclusive: 11.2 µM [inhibitor, full curve, poor fit] | 
O=C(NC(C(=O)N/N=C/c1cccc2ccccc12)c1n[nH]c(=O)c2ccccc12)c1ccccc1 (stereo not given) | inconclusive: 0.708 µM [inhibitor, full curve, poor fit] | 
O=C(COC(=O)c1ccccc1O)NCCc1c[nH]c2ccccc12 | inconclusive: 100 µM [inhibitor, single point] | 
O=C(Nc1ccc(Br)cc1F)c1ncoc1-c1ccco1 | inconclusive: 89.1 µM [inhibitor, single point] | 
CCOc1c2ccc(C(=O)NCc3ccc(C)cc3)cc2nn1CC | inconclusive: 50.1 µM [inhibitor, partial curve, poor fit] | 
COCCN1CCN(c2c(C)c(C)nc3cc(-c4cccc(OC)c4)nn23)CC1 | inconclusive: 89.1 µM [inhibitor, single point] | 
COc1cc(Cl)c(C)cc1NC(=O)c1ccccc1-n1cnnn1 | inconclusive: 89.1 µM [inhibitor, single point] | 
CN(C)c1ccc(N2C(=O)CSC2=S)cc1 | inconclusive: 11.2 µM [inhibitor, full curve, poor fit] | 
Cc1cc(C)c(NC(=O)C2CCN(c3nnc(C)c4c(C)n(-c5ccccc5)nc34)CC2)c(C)c1 | inconclusive: 56.2 µM [inhibitor, partial curve, poor fit] | 
O=C(CN1C(=O)C2CCCCC2C1=O)Nc1cccc([N+](=O)[O-])c1 (stereo not given) | inconclusive: 89.1 µM [inhibitor, single point] | 
Cc1ccc(-c2ccc(CCC(=O)O)o2)cc1 |  | inactive: -28.9% [at 58.9 µM]
COc1ccc(S(=O)(=O)NCCC(=O)OCc2cc(=O)oc3cc(C)ccc23)cc1[N+](=O)[O-] | inconclusive: 44.7 µM [inhibitor, partial curve] | 
COc1ccc(C(=O)N2CCN=C2c2ccccc2)cc1OC | inconclusive: 14.1 µM [inhibitor, partial curve, poor fit] | 
COc1ccccc1NC(=O)C(Cc1ccccc1)NS(=O)(=O)c1ccc2c(c1)c(=O)n(C)c(=O)n2C (stereo not given) | inconclusive: 39.8 µM [inhibitor, partial curve, poor fit] | 
Cc1c(N=C2N=C(NC(=O)c3ccc(F)cc3)c3ccccc32)c(=O)n(-c2ccccc2)n1C | inconclusive: 3.98 µM [inhibitor, partial curve, poor fit] | 
O=C1/C(=C/c2ccccc2)SC(=S)N1C1CCS(=O)(=O)C1 (stereo not given) |  | inactive: 3.9%

SMILES | Potency | activity, negative = inhibition
COc1ccccc1/C=C1\SC(=S)N(Nc2nc(C)cc(C)n2)C1=O | inconclusive: 25.1 µM [inhibitor, single point] | 
O=C(COc1ccccc1)Nc1nnc(S(=O)(=O)N2CCCC2)s1 | inconclusive: 44.7 µM [inhibitor, partial curve, poor fit] | 
Cc1ccc2c(=O)cc(CSCC(=O)Nc3nnc(C)s3)[nH]c2c1 | inconclusive: 89.1 µM [inhibitor, single point] | 
CC1(C)Cc2c(C#N)c(SCc3nc4ccccc4[nH]3)nc(N3CCOCC3)c2CO1 | inconclusive: 2.24 µM [inhibitor, partial curve, poor fit] | 
CCCC(=O)OCc1cnc(C)c2oc(=O)c(C(=O)Nc3ccccc3)cc12 | inconclusive: 35.5 µM [inhibitor, partial curve, poor fit] | 
Cc1cc(O)c2c(c1O)C(=O)[C@]13C(=C2O)C(=O)[C@@H]2[C@@H](O)[C@H]1[C@@H]1[C@H](O)[C@H]3C(=O)C3=C(O)c4c(O)cc(C)c(O)c4C(=O)[C@]312 | active: 3.16 µM | 
S=C(c1ccc(N2CCCC2)cc1)N1CCCCC1 | inconclusive: 28.2 µM [inhibitor, single point] | 
COc1ccc(NC(=O)COc2ccc(S(=O)(=O)NC3CCCCC3)cc2)cc1OC |  | inactive: 13.4%
CCOc1ccc(NC(=O)c2c(N)n(C)c(=O)[nH]c2=O)cc1 | inconclusive: 14.1 µM [inhibitor, full curve, poor fit] | 
COc1ccc(OC)c(NC(=O)CSc2nc3ccccc3nc2N2CCCCC2)c1 | inconclusive: 89.1 µM [inhibitor, single point] | 
CCCc1cc(=O)[nH]c(SCCc2ccccc2)n1 | inconclusive: 2.51 µM [inhibitor, full curve, poor fit] | 
CC(C)(C)OC(=O)CC[C@@H](C(=O)NCCCCCCCCCCC(=O)N1CCN(C(=O)OC(C)(C)C)CC1)n1cc(CCCCCNC(=O)OC(C)(C)C)nn1 | inconclusive: 22.4 µM [inhibitor, partial curve, poor fit] | 
COc1ccc(NCc2nnc(SCC(=O)c3ccc(OC)cc3)o2)cc1 | inconclusive: 35.5 µM [inhibitor, single point] | 
CCOC(=O)C1=C(Cc2ccc(OC)cc2)C(=O)c2ccccc2C1=O | inconclusive: 3.98 µM [inhibitor, full curve, poor fit] | 
CSc1nc(C)cc(C)c1C#N |  | inactive: -0.0976%
O=C(/C=C/c1ccc(Br)o1)OCc1nc2ccsc2c(=O)[nH]1 | active: 10 µM | 
CCn1cc(C(=O)OCC(=O)Nc2ccc(F)cc2F)c(=O)c2ccc(C)nc21 | inconclusive: 89.1 µM [inhibitor, single point] | 
N#CC[n+]1cc(-c2ccc(Cl)cc2)n2c1CCC2 | inconclusive: 50.1 µM [inhibitor, partial curve, poor fit] | 
CN(C(=O)CCN1C(=O)S/C(=C\c2ccccc2)C1=O)C1CCS(=O)(=O)C1 (stereo not given) | inconclusive: 50.1 µM [inhibitor, partial curve] | 
Cc1cc(C)c(NC(=O)CCCN2CCOCC2)c(C)c1 | inconclusive: 112 µM [inhibitor, partial curve, poor fit] | 

Looked up above.
Under Potency, O=C(/C=C/c1ccc(Br)o1)OCc1nc2ccsc2c(=O)[nH]1 is entered as active: 10 µM
Under Potency, CN(C)c1ccc(N2C(=O)CSC2=S)cc1 is entered as inconclusive: 11.2 µM [inhibitor, full curve, poor fit]
Under activity, negative = inhibition, CSc1nc(C)cc(C)c1C#N is entered as inactive: -0.0976%

More entries:

SMILES | Potency | activity, negative = inhibition
O=C(Cn1c2ncccc2c(=O)n1-c1ccccc1)Nc1ccc(F)c(F)c1 | inconclusive: 89.1 µM [inhibitor, single point] | 
N=C1C(c2nc3ccccc3s2)=C(O)CN1Cc1ccco1 | inconclusive: 50.1 µM [inhibitor, partial curve] | 
COc1ccc(C2CC(c3ccc(C)cc3)=NN2C(=O)c2ccccc2)cc1 (stereo not given) | inconclusive: 25.1 µM [inhibitor, single point] | 
CCc1ccc(Nc2ncnc3c2cnn3-c2cc(Cl)ccc2C)cc1 | inconclusive: 79.4 µM [inhibitor, partial curve, poor fit] | 
COc1ccc(/C=C2\SC(=O)N(CC(=O)NNC(=O)c3ccccc3O)C2=O)cc1OC | inconclusive: 2.82 µM [inhibitor, full curve, poor fit] | 
COC(=O)Cc1[nH]n(-c2nc3ccccc3s2)c(=O)c1C(C)=O | inconclusive: 22.4 µM [inhibitor, full curve, poor fit] | 
COCCN1CC(CNC(=O)c2cc(COc3ccccc3SC)on2)CC1=O (stereo not given) |  | inactive: -3.59%
CC1C/C(=C/c2ccncc2)C(=O)/C(=C/c2ccncc2)C1 (stereo not given) | inconclusive: 12.6 µM [inhibitor, full curve, poor fit] | 
COc1cc(/C=C(/C#N)c2ccc(F)cc2)ccc1Oc1ccc([N+](=O)[O-])cn1 | inconclusive: 89.1 µM [inhibitor, partial curve, poor fit] | 
O=C(CSc1nc2ccccc2nc1Cc1ccc(Cl)cc1)NCCc1ccccc1 |  | inactive: -21.3%
CCOc1ccccc1NC(=O)c1nnn(CC(=O)Nc2ccc(OC)c(OC)c2)c1N | inconclusive: 100 µM [inhibitor, single point] | 
COc1ccc(C(=O)CCNc2cccc(Cl)c2)cc1 | inconclusive: 70.8 µM [inhibitor, partial curve] | 
CC(=O)Nc1ccc(S(=O)(=O)/N=C2/NC(=O)/C(=C\c3ccco3)S2)cc1 | inconclusive: 8.91 µM [inhibitor, full curve, poor fit] | 
Oc1csc(Cc2nc(-c3ccccc3F)cs2)n1 | inconclusive: 44.7 µM [inhibitor, partial curve] | 
Cc1ccccc1NC(=O)Cn1c(O)c(N=NC(=O)c2ccccc2O)c2ccccc21 | inconclusive: 31.6 µM [inhibitor, single point] | 
CC1CCN2c3ccccc3CC3(C(=O)OC(C)(C)OC3=O)C2C1 (stereo not given) | inconclusive: 89.1 µM [inhibitor, partial curve, poor fit] | 
COc1cccc2c1-c1c(O)cccc1C2=O | inconclusive: 28.2 µM [inhibitor, single point] | 
Cc1ccc(NS(=O)(=O)c2ccc(N3CCN(c4ccc(O)cc4)CC3)c([N+](=O)[O-])c2)c(C)c1 | inconclusive: 20 µM [inhibitor, partial curve] | 
Cc1ccc(S(=O)(=O)N(CC(=O)Nc2cccnc2)c2ccccc2C)cc1 |  | inactive: 65.3%
C=CCn1c(CSCc2ccc(Cl)cc2Cl)nnc1SCC(=O)Nc1ccc(C(=O)O)cc1 | inconclusive: 17.8 µM [inhibitor, partial curve, poor fit] | 
